Source: article doi:10.1101/2023.07.28.550915
No constants are given. Whether binding was seen depends on the method and setting. Binding seen in cells or lysates may run through a third protein. These calls come from enrichment with a bait or labelling near it, and not all partners need be listed. Tags and fused reporters may be left off the sequences shown.

Amino acid sequences for entries named in this document (tags omitted).
UniProt Q9BQ67: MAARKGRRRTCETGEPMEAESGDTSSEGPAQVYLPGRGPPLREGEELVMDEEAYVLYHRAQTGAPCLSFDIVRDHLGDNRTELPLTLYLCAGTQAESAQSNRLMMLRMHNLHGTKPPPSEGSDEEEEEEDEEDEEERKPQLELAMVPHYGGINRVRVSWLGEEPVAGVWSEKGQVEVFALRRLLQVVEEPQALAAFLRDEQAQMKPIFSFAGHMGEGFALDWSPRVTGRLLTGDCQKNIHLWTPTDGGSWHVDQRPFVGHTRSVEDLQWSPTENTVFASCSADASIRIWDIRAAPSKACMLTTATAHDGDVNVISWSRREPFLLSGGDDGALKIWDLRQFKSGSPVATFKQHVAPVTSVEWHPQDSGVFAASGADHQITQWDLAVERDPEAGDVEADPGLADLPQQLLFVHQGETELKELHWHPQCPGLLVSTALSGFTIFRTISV
UniProt Q13242: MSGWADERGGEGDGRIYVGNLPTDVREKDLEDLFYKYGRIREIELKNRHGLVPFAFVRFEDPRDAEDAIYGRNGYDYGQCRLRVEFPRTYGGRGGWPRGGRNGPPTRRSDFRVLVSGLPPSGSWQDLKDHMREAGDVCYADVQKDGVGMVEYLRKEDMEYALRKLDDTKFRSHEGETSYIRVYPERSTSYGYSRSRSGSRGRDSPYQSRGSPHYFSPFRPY

Target: T1, Flag-tagged human DVL3 (Dishevelled 3), wild type (human) (UniProt Q92997)
T1 sequence: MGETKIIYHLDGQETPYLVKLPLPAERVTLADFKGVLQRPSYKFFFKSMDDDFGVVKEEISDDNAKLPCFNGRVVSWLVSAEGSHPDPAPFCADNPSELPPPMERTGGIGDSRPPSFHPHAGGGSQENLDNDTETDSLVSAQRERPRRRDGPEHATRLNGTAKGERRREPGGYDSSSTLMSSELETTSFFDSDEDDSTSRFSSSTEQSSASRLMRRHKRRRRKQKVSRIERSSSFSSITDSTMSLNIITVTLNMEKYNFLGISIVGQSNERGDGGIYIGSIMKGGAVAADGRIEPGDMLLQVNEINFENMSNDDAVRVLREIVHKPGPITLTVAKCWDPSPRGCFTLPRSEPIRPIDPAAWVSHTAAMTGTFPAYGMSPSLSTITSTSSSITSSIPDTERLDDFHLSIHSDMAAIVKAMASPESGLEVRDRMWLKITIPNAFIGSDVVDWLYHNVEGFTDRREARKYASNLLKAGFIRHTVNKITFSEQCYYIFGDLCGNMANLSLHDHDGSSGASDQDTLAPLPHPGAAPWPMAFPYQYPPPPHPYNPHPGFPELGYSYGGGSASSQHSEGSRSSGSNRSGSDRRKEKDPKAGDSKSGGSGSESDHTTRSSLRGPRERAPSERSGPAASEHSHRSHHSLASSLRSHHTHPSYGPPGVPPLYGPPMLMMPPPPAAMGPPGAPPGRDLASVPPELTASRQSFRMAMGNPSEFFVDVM
Test: affinity purification with mass spectrometry

Substance	binding
GRWD1 (from UniProt Q9BQ67 1-446)	binds
SRSF9 (from UniProt Q13242 1-221)	binds
